Assay: In vivo pharmacokinetics and brain partition study
Conditions: rat, brain/plasma; rats, fasted, single 1 mg/kg iv dose, at 1 and 4 hours; read-out: brain/plasma ratio
Method: single 1 mg/kg iv dose administered in rats under fasted conditions plasma concentrations determined at 10 time points (2 mins -24 hrs) brain partition ratio determined at 1 and 4 hours

With `CN1CC[C@]23c4c5ccc(O)c4O[C@H]2[C@@H](O)C=C[C@H]3[C@H]1C5` [morphine, reference compound] the Kp at 4 h was ≤ 1.
